# Results as given in publication PMC11941520.
# No constants are given. Whether binding was seen depends on the method and setting. In cells and extracts the contact can be indirect. Some results given as binding are weak or reduced against the parent protein; the word gives no strength.
# T1: Dihydrolipoamide S-acetyltransferase (DLAT), mouse, in ovaries (mouse (endogenous in mouse ovaries)) (UniProt Q8BMF4)
# T1 sequence: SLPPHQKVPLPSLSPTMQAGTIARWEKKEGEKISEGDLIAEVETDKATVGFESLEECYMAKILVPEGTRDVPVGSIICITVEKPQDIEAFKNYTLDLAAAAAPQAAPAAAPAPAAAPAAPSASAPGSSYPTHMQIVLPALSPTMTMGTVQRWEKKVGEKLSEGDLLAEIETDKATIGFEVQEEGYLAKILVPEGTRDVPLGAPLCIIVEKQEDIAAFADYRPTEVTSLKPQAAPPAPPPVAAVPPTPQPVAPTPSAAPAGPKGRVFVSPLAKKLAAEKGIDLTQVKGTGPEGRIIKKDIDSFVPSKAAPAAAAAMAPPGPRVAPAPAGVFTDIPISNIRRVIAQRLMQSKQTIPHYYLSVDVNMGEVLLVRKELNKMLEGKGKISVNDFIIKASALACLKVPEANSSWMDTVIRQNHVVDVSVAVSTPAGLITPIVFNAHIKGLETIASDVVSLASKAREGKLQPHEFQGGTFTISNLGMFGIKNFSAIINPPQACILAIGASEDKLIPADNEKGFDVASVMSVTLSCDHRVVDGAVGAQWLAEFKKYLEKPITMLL
# B1: CASP3 protein, mouse, in ovaries (protein, UniProt P70677 1-277)
# chain: MENNKTSVDSKSINNFEVKTIHGSKSVDSGIYLDSSYKMDYPEMGICIIINNKNFHKSTGMSSRSGTDVDAANLRETFMGLKYQVRNKNDLTREDILELMDSVSKEDHSKRSSFVCVILSHGDEGVIYGTNGPVELKKLTSFFRGDYCRSLTGKPKLFIIQACRGTELDCGIETDSGTDEEMACQKIPVEADFLYAYSTAPGYYSWRNSKDGSWFIQSLCSMLKLYAHKLEFMHILTRVNRKVATEFESFSLDSTFHAKKQIPCIVSMLTKELYFYH
# Target: T1, Dihydrolipoamide S-acetyltransferase (DLAT), mouse, in ovaries (mouse (endogenous in mouse ovaries))
# Assay: co-IP; mice ovaries; DLAT antibody pull-down with rProtein A/G Magnetic IP/Co-IP Kit, Western blot
binder,measurement,value
B1,binding,binds
